Test results as given in PubChem BioAssay AID504444 (National Center for Advancing Translational Sciences (NCATS), 2011).
Screen size: about 360,000 compounds; about 7,500 (2.1%) were called active. The inconclusive results got no clear call from the source; some entries with a clear call stand among them for comparison. Calls come from the whole dose curve; as a rule, active = well fitted inhibition curve with a large enough effect; inconclusive = small, poorly fitted or top-dose-only effect, or effect the other way; inactive = flat fitted curve, though single readings scatter. Potencies beside an inconclusive call are fits to weak or partial responses and may not hold up.

test: Nrf2 qHTS screen for inhibitors; details: A549 ARE-Fluc reporter, luciferase luminescence, 18-24 h; activity change, negative = inhibition: at 46 µM (top of the series); note: nearly all actives have a fitted effect of over 60% in size
How it was run: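 Nrf2 function is reported as luminescence of an ARE-controlled luciferase in A549 cells. Compounds were tested at several concentrations, and a CellTiter-Fluor read on the same wells flagged cytotoxicity.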
% is set by controls: 0 for no effect and ±100 for the full control effect; potency is the fitted concentration of half-maximal effect.

Row | Structure (SMILES) | activity change, negative = inhibition | Potency
1 | Cc1ccc(C)c(NC(=O)Cn2cc(C(=O)c3ccco3)c3ccccc32)c1 | inactive: -24% | 
2 | CC(=O)Nc1ccc2nc(-c3cccn3C)[nH]c2c1 |  | inconclusive: 20.6 µM [activator, partial curve, poor fit]
3 | O=C(CN1CCN(Cc2ccccc2Cl)C1=O)NCc1cccnc1 |  | inconclusive: 29.1 µM [falling, single point]
4 | CC(C)C(=O)c1cn(CC(=O)NCc2ccc3c(c2)OCO3)c2ccccc12 |  | inconclusive: 0.651 µM [falling, partial curve, poor fit]
5 | Cc1cc(=O)n2c(-c3ccc(Cl)cc3)csc2n1 |  | inconclusive: 0.731 µM [falling, partial curve, poor fit]
6 | Cc1cccc(N2CCN(C(=O)COc3ccc4c(C)cc(=O)oc4c3C)CC2)c1C |  | active: 16.4 µM
7 | COc1ccc(NC(=O)Nc2ccccc2F)cc1Cl |  | inconclusive: 1.84 µM [activator, full curve]
8 | O=[N+]([O-])c1cccc(C(=Nc2ccccc2Cl)NO)c1 |  | inconclusive: 6.51 µM [falling, partial curve, poor fit]
9 | Oc1ccc(/C=N/Nc2ccc(C(F)(F)F)cn2)cc1 |  | inconclusive: 29.1 µM [activator, single point]
10 | CC(=O)NC1CCC(OC(=O)Nc2ccccc2)CC1 (stereo unspecified) |  | inconclusive: 8.2 µM [activator, partial curve]
11 | CCOC(=O)C1(Cc2ccccc2C)CCCN(C(=O)c2ccccn2)C1 (stereo unspecified) |  | inconclusive: 7.31 µM [activator, partial curve]
12 | COc1ccc2nc(C)c3cc(C)oc3c2c1 | inactive: -10.5% | 
13 | ONC(=Nc1ccc(Cl)cc1)c1ccccc1 | inactive: -4.74% | 
14 | O=C(CN1CCN(c2ccccn2)CC1)Nc1nc2ccccc2s1 | inactive: -13.8% | 
15 | O=C(Nc1nc2ccccc2s1)c1ccc(F)cc1 |  | inconclusive: 2.91 µM [activator, full curve]
16 | COc1ccc(C2=C(C)C(=NCCCN3CCN(c4cc(C)ccc4C)CC3)NS2(=O)=O)cc1 | inactive: -16.8% | 
17 | COc1ccc(-c2cc(-c3nnc(COC(=O)C4CC4C)o3)c3ccccc3n2)cc1OC (stereo unspecified) | inactive: -25.3% | 
18 | O=C(Cc1ccccc1)Nc1ccc(SC(F)F)cc1 |  | inconclusive: 3.26 µM [activator, full curve]
19 | O=C(CSc1nnc(-c2ccc(F)cc2)o1)N1CCCCC1 |  | inconclusive: 9.2 µM [activator, partial curve]
20 | N=c1c2c(-c3ccccc3)c(-c3ccccc3)n(Cc3ccco3)c2ncn1CCCn1ccnc1 |  | inconclusive: 6.51 µM [falling, partial curve]
21 | Cc1cccc(-c2noc(-c3ccc(Cl)cc3[N+](=O)[O-])n2)c1 |  | inconclusive: 23.1 µM [activator, partial curve, poor fit]
22 | C=CCNc1nnc(SC2CC(=O)N(c3ccc(OCCC)cc3)C2=O)s1 (stereo unspecified) | inactive: -1.47% | 

Row | Structure (SMILES) | activity change, negative = inhibition | Potency
23 | CCC(CC)c1nnc(NC(=O)c2ccc3c(c2)OCO3)s1 |  | inconclusive: 18.4 µM [activator, partial curve]
24 | COCCN1Cc2cccc(C(=O)NCc3ccc4c(c3)OCO4)c2C1=O |  | inconclusive: 4.11 µM [falling, single point]
25 | CCn1cc(CCC(=O)NCc2ccccc2OC)c2ccccc21 |  | inconclusive: 20.6 µM [falling, single point]
26 | Cc1sc2ncn(CC(=O)NCCCN3CC(C)CC(C)C3)c(=O)c2c1S(=O)(=O)N1CC(C)CC(C)C1 (stereo unspecified) | inactive: 14.2% | 
27 | CC1=C(C(=O)Nc2ccccc2)C(c2cccnc2)n2nc(SCc3ccccc3Cl)nc2N1 (stereo unspecified) | inactive: -2.75% [at 9.27 µM] | 
28 | CC(Sc1ccc(S(=O)(=O)N2CCOCC2)cn1)C(=O)Nc1ccc(Cl)cc1Cl (stereo unspecified) |  | inconclusive: 18.4 µM [falling, single point]
29 | Cc1cc(C2CCCCC2)n(O)c(=O)c1 |  | inconclusive: 0.731 µM [falling, full curve, poor fit]
30 | CCOc1ccc(OCCN2C(=O)c3ccccc3C2=O)cc1 |  | inconclusive: 20.6 µM [activator, partial curve]
31 | Cc1cc(/C=C2/NC(=O)NC2=O)c(C)n1C |  | inconclusive: 3.26 µM [activator, single point]
32 | COc1cc(/C=N/Nc2cccc(C)c2)ccc1OC(=O)c1ccco1 |  | inconclusive: 23.1 µM [activator, single point]
33 | Cc1ccc(S(=O)(=O)c2cc3cc(C(=O)O)ccc3oc2=O)cc1 |  | inconclusive: 2.31 µM [activator, full curve, poor fit]
34 | Cc1ccc(C(=O)NCCCc2ccccc2)c(Cl)c1 |  | inconclusive: 9.2 µM [activator, partial curve]
35 | COc1ccccc1C(=O)OCCN=C1NS(=O)(=O)c2ccccc21 |  | inconclusive: 4.61 µM [falling, partial curve, poor fit]
36 | Oc1ccccc1N=Cc1sc2ccccc2c1Cl | inactive: 8.86% | 
37 | CCCCCOc1c(Cl)cc(C(=O)N(Cc2ccc(C)o2)C2CCS(=O)(=O)C2)cc1Cl (stereo unspecified) | inactive: 8.82% | 
38 | COc1ccc(-c2cc(C(=O)NNC(=S)NC(=O)c3c(-c4ccccc4)noc3C)[nH]n2)cc1 | inactive: 6.72% | 
39 | O=C(c1ccc(Cl)c(S(=O)(=O)N2CCc3ccccc3C2)c1)N1CCN(c2ccccc2)CC1 |  | inconclusive: 16.4 µM [falling, single point]
40 | Cc1ccc(CN2C(=O)N/C(=C\c3cccn3-c3cccc(C(=O)O)c3)C2=O)cc1 |  | active: 2.59 µM
41 | COc1ccc(Cl)cc1C1=CC(=O)C[C@H](c2ccc(F)cc2)C1 |  | inconclusive: 0.517 µM [activator, full curve, poor fit]
42 | Cc1ccc(C)c(Cn2nnc3c(=O)[nH]c(C4CCN(S(=O)(=O)c5ccc(S(=O)(=O)N(C)C)cc5)CC4)nc32)c1 |  | inconclusive: 23.1 µM [activator, partial curve, poor fit]
43 | CCCn1cc(S(=O)(=O)c2ccccc2)c(=O)c2cc(F)c(N3CCCC(C)C3)cc21 (stereo unspecified) |  | inconclusive: 20.6 µM [falling, single point]
44 | COc1ccc(/C=N/NC(=O)CSc2nnc(CCCc3ccc(OC)c(C)c3)o2)cc1 |  | inconclusive: 18.4 µM [falling, single point]

Ordered by length of the SMILES (descending): some entries from above.
Row | Structure (SMILES) | activity change, negative = inhibition | Potency
43 | CCCn1cc(S(=O)(=O)c2ccccc2)c(=O)c2cc(F)c(N3CCCC(C)C3)cc21 (stereo unspecified) |  | inconclusive: 20.6 µM [falling, single point]
14 | O=C(CN1CCN(c2ccccn2)CC1)Nc1nc2ccccc2s1 | inactive: -13.8% | 
34 | Cc1ccc(C(=O)NCCCc2ccccc2)c(Cl)c1 |  | inconclusive: 9.2 µM [activator, partial curve]
15 | O=C(Nc1nc2ccccc2s1)c1ccc(F)cc1 |  | inconclusive: 2.91 µM [activator, full curve]

Further results

Row | Structure (SMILES) | activity change, negative = inhibition | Potency
45 | CC(=O)C[C@H](O)CC(=O)[C@H]1OC(=O)CCCCCCc2ccccc21 | inactive: 3.61% | 
46 | COc1ccc(N(C(=O)c2snc(C(N)=O)c2N)C(C(=O)NC2CCCC2)c2cc(OC)ccc2OC)cc1 (stereo unspecified) |  | inconclusive: 11.6 µM [falling, partial curve, poor fit]
47 | O=C(Nc1ccc(Cl)cn1)C1COc2ccccc2O1 (stereo unspecified) |  | inconclusive: 9.2 µM [activator, partial curve]
48 | COc1ccc(C(=O)Nc2cc(C)nn2-c2nc3ccccc3[nH]2)c(OC)c1 |  | inconclusive: 23.1 µM [falling, single point]
49 | COc1ccc(Cc2nn3c(-c4ccccc4Br)nnc3s2)cc1 |  | active: 16.4 µM
50 | O=C(NCCC1CCCCN1S(=O)(=O)c1ccccc1)C(=O)NCc1ccncc1 (stereo unspecified) |  | inconclusive: 16.4 µM [falling, single point]
51 | CCOc1ccc(NC(=O)c2nn(C)c3c2CS(=O)(=O)c2ccccc2-3)cc1 | inactive: -4.57% | 
52 | COc1ccccc1C1SCCN1S(=O)(=O)c1cccc(C(F)(F)F)c1 (stereo unspecified) |  | inconclusive: 16.4 µM [falling, single point]
53 | Cc1cccc(N2CCN(S(=O)(=O)c3cccc4nonc34)CC2)c1C |  | inconclusive: 32.6 µM [falling, partial curve, poor fit]
54 | COc1ccc(CCNC(=O)CCCn2c(=O)c3ccccc3n(CC(=O)Nc3cc(Cl)ccc3C)c2=O)cc1OC |  | inconclusive: 4.11 µM [falling, partial curve]
55 | Cc1ccc(-c2nnc(SCc3nc(N)nc(Nc4ccccc4C)n3)n2N)cc1 |  | inconclusive: 7.31 µM [activator, partial curve, poor fit]
56 | COc1ccccc1CN(C)CC(=O)Nc1ccccc1-c1ccccc1 |  | active: 23.1 µM
57 | COCCn1c(SCc2nc(N)nc(Nc3ccccc3C)n2)nc2ccccc2c1=O |  | inconclusive: 11.6 µM [falling, partial curve, poor fit]
58 | Cc1ccc(S(=O)(=O)N2CCN(C(=O)CSC(=S)N3CCCC3)CC2)c(C)c1 |  | inconclusive: 18.4 µM [falling, single point]
59 | COc1ccc(CCNC(=O)c2ccc(S(=O)(=O)N3CCCCC3)cc2)cc1 |  | inconclusive: 14.6 µM [falling, single point]
60 | O=C(O)c1cnn2c(C(F)(F)F)cc(-c3ccccc3)nc12 |  | inconclusive: 3.66 µM [activator, partial curve, poor fit]
61 | CC(=O)Nc1ccc2c(c1)C(=O)c1ccccc1C2=O |  | inconclusive: 1.64 µM [activator, partial curve]
62 | CCCCCC(=O)Nc1ccc(-c2csc(N)n2)cc1 |  | inconclusive: 6.51 µM [activator, partial curve]
63 | O=C(CCN1C(=O)/C(=C/c2cccs2)SC1=S)Nc1cccc(O)c1 |  | inconclusive: 29.1 µM [activator, single point]
64 | Cc1nn(CC(=O)N2CCCCC2)c(=O)c2nn(-c3ccccc3)c(C)c12 |  | inconclusive: 1.64 µM [activator, partial curve]
65 | Cc1ccnc(NC(=O)C2CCN(S(=O)(=O)c3cccc4nsnc34)CC2)c1 |  | inconclusive: 5.8 µM [falling, full curve, poor fit]
66 | CN(Cc1ccccc1Cl)C(=O)c1cc2ccccc2o1 |  | inconclusive: 14.6 µM [activator, partial curve, poor fit]
